Measured values taken from patent US20250075147A1, “FRAGRANCE AND FLAVOR COMPOSITIONS COMPRISING NEW FLAVOR AND FRAGRANCE INGREDIENTS” (priority 2023, published 2025).

Key:
odor evaluation panel = test: Odor evaluation panel rating of odorants by Rate-All-That-Apply (RATA) method with 55-word odor lexicon, plus intensity and pleasantness; design: species or system human; details: for Floral: mean panelist score for odor label floral (RATA); for Fruity: mean panelist score for odor label fruity (RATA); for Spicy: mean panelist score for odor label spicy (RATA); for Sweet: mean panelist score for odor label sweet (RATA); for Pleasantness: mean panelist score for odor pleasantness
[1] = Evaluation by trained and/or certified flavor or fragrance chemists or master perfumers; categorization by commercial prospect; details: for Rating: category of commercial prospect, (A) highest > (B) > (C) > (D) lowest, (E) requires further study; for Rating (category of commercial prospect): evaluation by trained flavor or fragrance chemists or master perfumers

Compound	Floral (odor evaluation panel)	Fruity (odor evaluation panel)	Spicy (odor evaluation panel)	Sweet (odor evaluation panel)	Pleasantness (odor evaluation panel)	Rating [1]	Rating (category of commercial prospect) [1]
O=[N+]([O-])c1ccc(C=NO)o1 [Compound 253, N-[(5-nitrofuran-2-yl)methylidene]hydroxylamine]	0.031	0	0.438	0.062	4.369	(D)	–
NCCSSCCN [Compound 709, 2-(2-aminoethyldisulfanyl)ethanamine]	0.094	0	0.094	0	5.097	–	(D)
COc1ccc(C)c([N+](=O)[O-])c1 [Compound 484, 4-methoxy-1-methyl-2-nitrobenzene]	0.5	0	0.139	0.333	–	(B)	–
CCCCCOc1ccc(C=O)cc1 [Compound 320, 4-pentoxybenzaldehyde]	0.469	0.625	0	0.625	4.025	(D)	–
COc1cc(C)cc(C)c1 [Compound 649, 1-methoxy-3,5-dimethylbenzene]	0.469	0.188	0.375	0.531	4.731	–	(D)
Cc1cccc2cc[nH]c12 [Compound 276, 7-methyl-1H-indole]	0.188	0	0.188	0.219	3.581	(B)	–
C=C(C)C(=O)OC1CC2CC1C1CCCC21 (centres unmarked) [Compound 118, 8-tricyclo[5.2.1.02,6]decanyl 2-methylprop-2-enoate]	0.781	1.375	0	1.562	6.356	(A)	–
CC(C)(C)C(=O)CC#N [Compound 791, 4,4-dimethyl-3-oxopentanenitrile]	0.194	0.917	0	0.861	–	–	(D)
Cc1nc2cc(C)c(C)cc2s1 [Compound 260, 2,5,6-trimethyl-1,3-benzothiazole]	0.406	0.156	0.094	0.688	5.097	(D)	–
COc1ccc(O)cc1OC [Compound 487, 3,4-dimethoxyphenol]	0	0	0.167	0.25	–	(B)	–
C=CC1CC2C=CC1C2 (centres unmarked) [Compound 735, 5-ethenylbicyclo[2.2.1]hept-2-ene]	0	0.156	0.531	0.469	3.809	–	(B)
O=C(O)C1=COCCC1 [Compound 801, 3,4-dihydro-2H-pyran-5-carboxylic acid]	0	0.125	0.094	0.156	3.706	–	(D)
Cc1cc(=O)[nH]o1 [Compound 959, 5-methyl-1,2-oxazol-3-one]	0	0	0.091	0.242	5.491	–	(D)
C#Cc1ccc(CCCCC)cc1 [Compound 780, 1-ethynyl-4-pentylbenzene]	0.281	0.469	0.688	1.094	5.678	–	(A)
O=Cc1csc2ccccc12 [Compound 470, 1-benzothiophene-3-carbaldehyde]	0.361	0.361	0.167	0.806	–	(D)	–
NC(=O)c1ccncc1 [Compound 533, pyridine-4-carboxamide]	0.433	1.467	0.033	1.6	6.25	(A)	–
CC(C)(C)c1cccc(C(C)(C)C)n1 [Compound 332, 2,6-ditert-butylpyridine]	0.207	0.793	0.517	0.759	4.421	(B)	–
Cc1cc(=O)[nH]c(C)n1 [Compound 596, 2,4-dimethyl-1H-pyrimidin-6-one]	0.029	0	0.2	0.086	5.249	–	(B)

Compound	Floral (odor evaluation panel)	Fruity (odor evaluation panel)	Spicy (odor evaluation panel)	Sweet (odor evaluation panel)	Pleasantness (odor evaluation panel)	Rating [1]	Rating (category of commercial prospect) [1]
CCCC(O)C(CC)CO (centres unmarked) [Compound 191, 2-ethylhexane-1,3-diol]	0.167	0.167	0.133	0.733	4.43	(C)	–
CSC(=NC#N)SC [Compound 355, bis(methylsulfanyl)methylidenecyanamide]	0	0	0.438	0	3.197	(D)	–
C=C(CC(=O)OCCCC)C(=O)OCCCC [Compound 665, dibutyl 2-methylidenebutanedioate]	0.028	0.472	0	0.75	–	–	(D)
CC1=NN(C)C(=O)C1 [Compound 601, 2,5-dimethyl-4H-pyrazol-3-one]	0	0	0.121	0.273	5.924	–	(D)
COC(=O)c1ccnc(C#N)c1 [Compound 120, methyl 2-cyanopyridine-4-carboxylate]	0	0.028	0	0.083	–	(D)	–
COc1cc(C)c(OC)c(OC)c1OC [Compound 514, 1,2,3,4-tetramethoxy-5-methylbenzene]	0.412	0	0.088	0.412	5.4	(A)	–
O=C1CC2CC1C1CCCC21 (centres unmarked) [Compound 434, tricyclo[5.2.1.02,6]decan-8-one]	0.4	0.6	0.171	1.429	6.346	(D)	–
Cc1cc(C)cc(C#N)c1 [Compound 974, 3,5-dimethylbenzonitrile]	0.355	0.484	1.968	2.032	6.661	–	(B)
CC[C@@H](N)c1ccccc1 [Compound 578, (1R)-1-phenylpropan-1-amine]	0.286	0	0.114	0.229	3.051	–	(D)
O/N=C\c1cccs1 [Compound 312, (NZ)-N-(thiophen-2-ylmethylidene)hydroxylamine]	0.355	0	0.161	0.548	4.961	(D)	–
Cn1cc(C=O)c2ccccc21 [Compound 152, 1-methylindole-3-carbaldehyde]	0.235	0	0.235	0.441	4.938	(D)	–
CON(C)C(C)=O [Compound 592, N-methoxy-N-methylacetamide]	0.235	0.235	0.029	0.794	5.726	–	(D)
COC1=NCCCCC1 [Compound 827, 7-methoxy-3,4,5,6-tetrahydro-2H-azepine]	0.118	0.118	0.059	0.118	4.985	–	(D)
CN(C)C(OC(C)(C)C)N(C)C [Compound 136, N,N,N′,N′-tetramethyl-1-[(2-methylpropan-2-yl)oxy]methanediamine]	0.125	0	0	0.094	2.919	(D)	–
C#CC1(O)CCCCC1 [Compound 319, 1-ethynylcyclohexan-1-ol]	0	0.111	0	0.528	–	(C)	–
Nc1ccc(S)cc1 [Compound 179, 4-aminobenzenethiol]	0	0.094	0.031	0.125	4.991	(D)	–
Cc1ccc2cccc(O)c2n1 [Compound 161, 2-methylquinolin-8-ol]	0.114	0	0.286	0.6	4.943	(D)	–
Cc1ccc([N+](=O)[O-])c(C)n1 [Compound 995, 2,6-dimethyl-3-nitropyridine]	0	0	0	0.774	6.371	–	(A)
